PubChem BioAssay AID2662 (National Center for Advancing Translational Sciences (NCATS), 2010)
Hit rate of the full screen: of about 290,000 compounds, about 110 (0.038%) were called active. This list was built around the results that the source calls inconclusive (neither active nor inactive); the mix of calls is not that of the screen. The call rests on the fitted dose curve; in most records, active means well fitted inhibition curve with a large enough effect in the polarisation, with a control signal flat (not every such curve was filed as active); inconclusive means small, poorly fitted or top-dose-only effect, or effect the other way, or a change in a side signal; inactive means no such curve, though single readings can be large or run the other way; the % refers to the polarisation. A potency beside an inconclusive call is a rough fit, not a confirmed value. A note “side channel” means that the fit belongs to a control or component signal, not to the main read-out.

Chains of the proteins cited; added tags and fusions are not shown.
UniProt Q03164, whole entry, looked up: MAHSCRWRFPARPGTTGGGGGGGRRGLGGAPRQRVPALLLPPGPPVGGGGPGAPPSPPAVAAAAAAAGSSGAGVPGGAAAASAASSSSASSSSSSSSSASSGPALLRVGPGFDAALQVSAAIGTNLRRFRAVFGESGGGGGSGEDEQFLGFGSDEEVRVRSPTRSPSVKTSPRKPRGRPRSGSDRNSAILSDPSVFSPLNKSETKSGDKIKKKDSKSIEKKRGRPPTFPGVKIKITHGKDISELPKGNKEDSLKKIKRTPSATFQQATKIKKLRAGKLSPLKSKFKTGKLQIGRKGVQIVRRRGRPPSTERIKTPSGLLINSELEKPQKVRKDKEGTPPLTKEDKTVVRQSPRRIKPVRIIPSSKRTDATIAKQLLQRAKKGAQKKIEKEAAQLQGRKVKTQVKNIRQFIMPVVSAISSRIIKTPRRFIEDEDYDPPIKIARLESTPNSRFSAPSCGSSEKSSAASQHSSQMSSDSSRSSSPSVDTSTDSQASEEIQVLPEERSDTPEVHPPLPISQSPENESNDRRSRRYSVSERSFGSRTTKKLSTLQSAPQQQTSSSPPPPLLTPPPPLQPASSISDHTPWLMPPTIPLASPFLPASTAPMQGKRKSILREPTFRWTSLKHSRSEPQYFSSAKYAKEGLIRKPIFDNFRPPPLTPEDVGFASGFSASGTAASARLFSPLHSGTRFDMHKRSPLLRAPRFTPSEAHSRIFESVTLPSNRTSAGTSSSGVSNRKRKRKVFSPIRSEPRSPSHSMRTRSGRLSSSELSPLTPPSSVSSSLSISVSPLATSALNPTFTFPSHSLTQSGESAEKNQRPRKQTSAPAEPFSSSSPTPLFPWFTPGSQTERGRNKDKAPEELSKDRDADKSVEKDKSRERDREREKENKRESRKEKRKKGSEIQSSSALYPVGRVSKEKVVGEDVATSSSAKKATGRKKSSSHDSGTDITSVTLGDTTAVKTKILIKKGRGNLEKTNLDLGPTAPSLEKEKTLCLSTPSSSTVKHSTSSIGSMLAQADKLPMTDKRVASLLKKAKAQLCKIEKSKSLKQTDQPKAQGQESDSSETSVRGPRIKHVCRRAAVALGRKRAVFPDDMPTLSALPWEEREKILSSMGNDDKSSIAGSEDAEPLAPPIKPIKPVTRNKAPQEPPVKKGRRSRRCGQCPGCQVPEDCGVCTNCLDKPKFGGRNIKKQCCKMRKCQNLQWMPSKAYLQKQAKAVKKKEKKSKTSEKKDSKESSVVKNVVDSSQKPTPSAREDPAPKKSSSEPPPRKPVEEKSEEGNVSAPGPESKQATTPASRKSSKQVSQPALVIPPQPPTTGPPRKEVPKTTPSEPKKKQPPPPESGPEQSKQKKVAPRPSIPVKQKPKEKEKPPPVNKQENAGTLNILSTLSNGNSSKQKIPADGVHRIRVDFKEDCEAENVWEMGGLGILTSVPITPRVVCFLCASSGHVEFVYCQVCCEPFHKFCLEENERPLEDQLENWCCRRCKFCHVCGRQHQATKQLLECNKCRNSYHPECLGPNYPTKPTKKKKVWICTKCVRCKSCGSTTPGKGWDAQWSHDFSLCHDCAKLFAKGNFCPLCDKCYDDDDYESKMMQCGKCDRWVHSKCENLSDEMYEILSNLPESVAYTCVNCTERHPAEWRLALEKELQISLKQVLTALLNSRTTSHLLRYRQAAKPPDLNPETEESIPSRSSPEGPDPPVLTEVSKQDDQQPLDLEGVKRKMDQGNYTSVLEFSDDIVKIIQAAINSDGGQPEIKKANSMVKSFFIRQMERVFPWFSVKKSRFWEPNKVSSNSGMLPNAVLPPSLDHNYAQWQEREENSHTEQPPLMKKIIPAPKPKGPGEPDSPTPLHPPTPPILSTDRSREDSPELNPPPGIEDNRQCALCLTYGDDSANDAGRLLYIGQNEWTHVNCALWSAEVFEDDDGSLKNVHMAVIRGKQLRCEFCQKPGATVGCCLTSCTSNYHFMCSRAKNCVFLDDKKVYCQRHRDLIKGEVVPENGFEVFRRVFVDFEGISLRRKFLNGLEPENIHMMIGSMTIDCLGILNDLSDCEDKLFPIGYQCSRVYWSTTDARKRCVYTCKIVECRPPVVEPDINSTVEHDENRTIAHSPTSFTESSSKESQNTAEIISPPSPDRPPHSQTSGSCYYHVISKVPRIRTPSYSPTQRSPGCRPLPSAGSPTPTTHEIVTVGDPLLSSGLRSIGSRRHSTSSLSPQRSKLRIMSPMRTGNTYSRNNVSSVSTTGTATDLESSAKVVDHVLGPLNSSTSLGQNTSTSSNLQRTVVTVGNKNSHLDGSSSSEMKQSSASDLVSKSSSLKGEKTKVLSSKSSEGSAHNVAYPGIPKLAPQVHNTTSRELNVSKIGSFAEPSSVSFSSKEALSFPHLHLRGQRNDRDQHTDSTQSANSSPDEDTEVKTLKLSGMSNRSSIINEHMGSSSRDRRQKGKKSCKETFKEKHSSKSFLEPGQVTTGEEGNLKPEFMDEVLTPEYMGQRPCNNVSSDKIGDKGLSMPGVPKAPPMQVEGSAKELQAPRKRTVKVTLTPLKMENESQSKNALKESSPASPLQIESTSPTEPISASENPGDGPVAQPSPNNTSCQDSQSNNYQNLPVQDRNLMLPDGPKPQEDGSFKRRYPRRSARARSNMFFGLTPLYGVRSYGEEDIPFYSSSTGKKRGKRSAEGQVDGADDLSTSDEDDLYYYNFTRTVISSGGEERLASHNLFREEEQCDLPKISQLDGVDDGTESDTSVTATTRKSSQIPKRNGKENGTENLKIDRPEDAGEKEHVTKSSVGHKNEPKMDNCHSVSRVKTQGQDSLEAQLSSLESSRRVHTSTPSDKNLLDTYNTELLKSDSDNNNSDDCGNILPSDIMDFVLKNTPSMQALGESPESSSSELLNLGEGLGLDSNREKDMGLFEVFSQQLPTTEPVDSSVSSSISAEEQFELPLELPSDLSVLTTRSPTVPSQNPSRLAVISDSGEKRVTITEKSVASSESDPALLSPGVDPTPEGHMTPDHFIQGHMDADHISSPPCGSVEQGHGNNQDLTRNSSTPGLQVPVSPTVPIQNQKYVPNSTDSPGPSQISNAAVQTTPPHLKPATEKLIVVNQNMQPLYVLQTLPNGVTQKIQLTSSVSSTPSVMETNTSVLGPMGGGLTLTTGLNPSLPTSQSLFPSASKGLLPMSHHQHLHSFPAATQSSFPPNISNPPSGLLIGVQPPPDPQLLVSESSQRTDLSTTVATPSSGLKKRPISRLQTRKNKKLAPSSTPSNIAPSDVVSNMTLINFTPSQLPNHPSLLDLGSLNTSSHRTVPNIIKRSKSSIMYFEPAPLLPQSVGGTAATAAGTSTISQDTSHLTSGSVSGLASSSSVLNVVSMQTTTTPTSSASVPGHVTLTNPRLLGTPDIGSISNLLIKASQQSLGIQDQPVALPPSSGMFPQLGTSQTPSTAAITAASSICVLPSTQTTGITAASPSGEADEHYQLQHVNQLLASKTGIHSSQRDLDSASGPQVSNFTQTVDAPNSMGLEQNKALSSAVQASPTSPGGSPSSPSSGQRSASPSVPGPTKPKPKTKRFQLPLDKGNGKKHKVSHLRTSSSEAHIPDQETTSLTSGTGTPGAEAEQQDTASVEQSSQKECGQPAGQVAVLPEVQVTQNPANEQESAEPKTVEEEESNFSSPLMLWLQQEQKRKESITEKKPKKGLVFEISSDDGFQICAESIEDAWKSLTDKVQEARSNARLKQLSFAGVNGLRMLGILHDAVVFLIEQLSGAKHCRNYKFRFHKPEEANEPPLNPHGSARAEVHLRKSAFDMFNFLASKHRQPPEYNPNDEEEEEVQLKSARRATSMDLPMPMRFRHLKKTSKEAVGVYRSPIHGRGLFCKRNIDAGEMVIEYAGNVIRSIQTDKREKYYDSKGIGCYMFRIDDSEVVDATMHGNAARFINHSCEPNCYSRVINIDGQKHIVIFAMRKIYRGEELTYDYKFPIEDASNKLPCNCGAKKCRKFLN

What follows are compounds tested against Histone-lysine N-methyltransferase 2A (Homo sapiens) (UniProt Q03164) (assay: qHTS Fluorescence Polarization Assay for Inhibitors of MLL CXXC domain - DNA interaction). Conditions: MLL-CXXC / FITC-HOXA9 DNA fluorescence polarization; activity change, negative = inhibition: at 115 µM (top of the series).
Outline: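 Steps: dispense CXXC domain solution (7 uM) → pin compounds or unlabeled HOX-A9 DNA control → 5 min ambient → add FLSN-HOX-A9 solution (50 nM) → spin → 30 min ambient → fluorescence polarization. Tris pH 7.5/NaCl/DTT/BSA buffer.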
Potency means the concentration at half of the fitted maximal effect.

| Compound | Potency | activity change, negative = inhibition |
| --- | --- | --- |
| CC(Oc1ccc(Br)cc1)C(=O)Nn1c(=S)[nH]c2ncccc2c1=O (stereo not drawn) | inconclusive: 31.6 µM [inhibitor, single point] |  |
| O=C(O)CCN1C(=O)c2ccc(NC(=O)CCc3ccccc3)cc2C1=O | inactive |  |
| COc1ccc(-n2c(C)ccc2-c2ccccc2)cn1 | inconclusive: 31.6 µM [fluorescent, partial curve] |  |
| CN(C(=O)COc1ccccc1C(=O)NCCOc1ccccc1)c1ccccc1 | inconclusive: 1.58 µM [fluorescent, side channel, full curve, poor fit] |  |
| CCn1c(CSc2nccn2C)nc2cc(C(=O)O)ccc21 | inconclusive: 12.6 µM [inhibitor, partial curve, poor fit] |  |
| Cc1ccc(COc2ccccc2C(=S)N2CCCC2)cc1 | inconclusive: 14.1 µM [fluorescent, side channel, single point] |  |
| Cn1nnnc1SCC(=O)Nc1ccccc1Br | inconclusive: 14.1 µM [fluorescent, side channel, single point] |  |
| CC(C)n1cnc2c(=S)nc[nH]c21 | inconclusive: 70.8 µM [quencher, side channel, single point] |  |
| COc1ccc(/C=N/N=C2/NC(=O)CC(C(=O)O)S2)cc1 (stereo not drawn) | inactive |  |
| CC(=O)OC[C@H]1O[C@@H](Sc2cccc3cccnc23)[C@H](OC(C)=O)[C@@H](OC(C)=O)[C@H]1OC(C)=O | inactive |  |
| Brc1ccc(N/N=C(/N=Nc2nn[nH]n2)c2ccccc2)cc1 | inconclusive: 31.6 µM [inhibitor, single point] |  |
| COc1ccc2ccccc2c1CNC(C)CCc1ccccc1 (stereo not drawn) | inconclusive: 35.5 µM [quencher, side channel, partial curve, poor fit] |  |
| N#Cc1c(N)nc2c3c(sc(=N)c2c1N)NC(=O)CC3c1c(F)cccc1Cl (stereo not drawn) | inactive |  |
| COc1ccccc1NC(=O)NNC(=O)c1ccc(-c2ccccc2)cc1 | inconclusive: 10 µM [fluorescent, side channel, single point] |  |
| S=C(Nc1cc(Cl)cc(Cl)c1)N1CCCC1 | inconclusive: 14.1 µM [fluorescent, side channel, single point] |  |
| NC(=O)NC(=O)CC1S/C(=N/N=C2\CSC(=O)N2)NC1=O (stereo not drawn) | inconclusive: 31.6 µM [fluorescent, side channel, partial curve] |  |
| Cc1nn(-c2cccc(C(F)(F)F)c2)c(Cl)c1/C=N/n1cnnc1 | inconclusive: 8.91 µM [fluorescent, side channel, partial curve] |  |
| COc1ccc2c(n1)Sc1nc3ccccc3nc1N2 | inconclusive: 14.1 µM [fluorescent, side channel, full curve] |  |
| CC(=O)N/N=C/c1cc(C(C)(C)C)cc(/C=N/NC(C)=O)c1O | inconclusive: 28.2 µM [inhibitor, partial curve] |  |
| Cc1nn2cc(-c3ccc(Cl)cc3)cnc2c1Br | inconclusive: 14.1 µM [fluorescent, side channel, full curve, poor fit] |  |

| Compound | Potency | activity change, negative = inhibition |
| --- | --- | --- |
| Cc1c(C(=O)NCc2cccnc2)oc2ccc(S(=O)(=O)N3CCCCC3)cc12 | inconclusive: 35.5 µM [quencher, side channel, single point] |  |
| CCCc1cc(=O)oc2c(C)c(O[C@@H]3O[C@H](CO)[C@@H](O)[C@H](O)[C@H]3O)ccc12 | inconclusive: 89.1 µM [inhibitor, single point] |  |
| C#CCOCCOCCOCCNc1nc(N2CCN(C(=O)C([C@@H](C)CC)n3cc(C(N)CC(C)C)nn3)CC2)nc(N2CCN(C(=O)[C@H](CCC(=O)O)n3cc(C(N)CC(C)C)nn3)CC2)n1 (stereo partly drawn) | inconclusive: 12.6 µM [inhibitor, partial curve] |  |
| CCOc1cc(/C=N/N=C/c2ccc(O)c(OCC)c2)ccc1O | inconclusive: 14.1 µM [fluorescent, side channel, full curve] |  |
| C=CCn1c(SCC(=O)NC2CCCC2)nnc1-c1cccnc1 | inconclusive: 14.1 µM [fluorescent, side channel, single point] |  |
| C/C(=N\NC(=O)c1nn(C)c(C)c1Br)c1ccc(NC(=O)c2ccoc2C)cc1 | inconclusive: 56.2 µM [fluorescent, side channel, partial curve, poor fit] |  |
| Cc1ccc(S(=O)(=O)N2CCN(C(=O)N(c3ccccc3)c3ccccc3)CC2)cc1 | inconclusive: 35.5 µM [quencher, side channel, single point] |  |
| O=C1NC(=Nc2ccccc2)S/C1=C\c1cccs1 | inactive |  |
| Cc1cc(C)c(C(=O)N(CCN(C)C)CC2CCCN(Cc3ccccc3F)C2)o1 (stereo not drawn) | inconclusive: 31.6 µM [fluorescent, side channel, partial curve] |  |
| Cc1ccc(C(=O)c2cc3ccccc3o2)cc1[N+](=O)[O-] | inconclusive: 14.1 µM [fluorescent, side channel, single point] |  |
| Cc1ccc(N=Nc2c(O)[nH]c3ccc(F)cc23)cc1 | inconclusive: 39.8 µM [fluorescent, side channel, partial curve] |  |
| Nc1nc2c(s1)CCc1c-2cnn1-c1ccccc1 | active: 31.6 µM |  |
| C/C(=N\OC(=O)c1ccccc1)c1c(C)nc2cc(C)ccn12 | inconclusive: 11.2 µM [fluorescent, side channel, single point] |  |
| COc1ccccc1N1CCN(C(=O)c2cc(C)on2)CC1 | inconclusive: 89.1 µM [fluorescent, side channel, single point] |  |
| Cc1ccc(-c2c(C(=O)Nc3ccccc3C)c(C)[nH]c(=S)c2C#N)o1 | inconclusive: 17.8 µM [fluorescent, side channel, partial curve] |  |
| O=C1/C(=N\S(=O)(=O)c2cccs2)C([n+]2ccc(CCCc3ccccc3)cc2)=C([O-])c2ccccc21 | inactive |  |
| COc1ccc(C(=O)/C(=C/N(C)C)S(=O)(=O)c2ccccc2)cc1 | inconclusive: 14.1 µM [inhibitor, single point] |  |
| O=c1[nH]ncc2c3ccccc3n(Cc3cccc(Cl)c3)c12 | inconclusive: 35.5 µM [fluorescent, side channel, partial curve] |  |
| CSCC(C)N1CCC(n2nccc2NC(=O)CCCc2ccccc2)CC1 (stereo not drawn) | inconclusive: 31.6 µM [fluorescent, side channel, partial curve] |  |
| COC(=O)C1=C(C)N(Cc2ccccc2)C(=NCc2ccco2)N[C@H]1c1ccc(Br)cc1 | inconclusive: 12.6 µM [quencher, side channel, partial curve] |  |

| Compound | Potency | activity change, negative = inhibition |
| --- | --- | --- |
| COc1ccc(C)cc1N(C(=O)c1ccc(F)cc1)c1nc2ccccc2s1 | inconclusive: 35.5 µM [inhibitor, single point] |  |
| NC(=O)COc1ccc2cc(-c3ccccc3)c(=O)oc2c1 | inactive |  |
| Cc1cc(C)n2c(Br)c(CSc3nc4ccccc4o3)nc2n1 | inactive |  |
| COc1cccc(N(C(=O)c2cnccn2)C(C(=O)NC2CCCCC2)c2ccc(Cl)cc2)c1 (stereo not drawn) | inconclusive: 1.41 µM [quencher, side channel, partial curve, poor fit] |  |
| O=C(c1ccccc1)c1c2c(cc3sc4ccccc4[n+]13)-c1cccc3cccc-2c13 | inconclusive: 63.1 µM [quencher, side channel, single point] |  |
| Cc1ccc2nc3sc(C(=O)N4CCCc5ccccc54)c(N)c3cc2c1 | inconclusive: 70.8 µM [fluorescent, side channel, single point] |  |
| CCn1cc(C(=O)NCc2ccccn2)c(=O)c2cc(S(=O)(=O)N3CCCCC3)ccc21 | inconclusive: 39.8 µM [inhibitor, single point] |  |
| COC(=O)CSc1nc2ncccc2[nH]1 | inconclusive: 35.5 µM [fluorescent, side channel, partial curve, poor fit] |  |
| COc1ccc(NC(=O)c2nc(S(=O)(=O)Cc3cccc(C)c3)ncc2Cl)c(OC)c1 | inconclusive: 31.6 µM [quencher, side channel, single point] |  |
| CCOC(=O)C1=C(C)N(C2CCCCC2)C(=O)C1 | inactive |  |
| COc1ccc(NC(=S)Nc2cc(C)cc(C)n2)cc1OC |  | inconclusive: 24.1% [phenotype inactive] |
| O=C(Nc1ccc(OC(F)(F)F)cc1)Nc1cccc([N+](=O)[O-])c1 | inconclusive: 10 µM [quencher, side channel, single point] |  |
| COc1ccc(S(=O)(=O)CC(=O)c2cc(C)c(O)c(C)c2)cc1 | inconclusive: 17.8 µM [fluorescent, side channel, partial curve] |  |
| N#C/C(=C\c1cc(Cl)cc(Cl)c1O)C(=O)NC1CCCCC1 | inconclusive: 7.08 µM [fluorescent, side channel, full curve] |  |
| Cc1cccc(/C=N/c2sc3c(c2C(=O)OC(C)(C)C)CCN(C)C3)c1O | inconclusive: 35.5 µM [quencher, side channel, partial curve] |  |
| CCOC(=O)CC1C(=O)NCCN1c1nc2ccc(C)cn2c(=O)c1/C=C1\SC(=S)N(C(C)CC)C1=O (stereo not drawn) | inconclusive: 15.8 µM [fluorescent, side channel, partial curve] |  |
| CC(=O)c1cccc(NC(=S)NNC(=O)c2ccco2)c1 | inconclusive: 31.6 µM [inhibitor, partial curve] |  |
| O=C(O)c1ccccc1C(=O)NC1=NN(c2ccccc2)CC1 | inactive |  |

Quoted from the entries so far, 2 compounds:

| Compound | Potency | activity change, negative = inhibition |
| --- | --- | --- |
| COc1cccc(N(C(=O)c2cnccn2)C(C(=O)NC2CCCCC2)c2ccc(Cl)cc2)c1 (stereo not drawn) | inconclusive: 1.41 µM [quencher, side channel, partial curve, poor fit] |  |
| O=C(c1ccccc1)c1c2c(cc3sc4ccccc4[n+]13)-c1cccc3cccc-2c13 | inconclusive: 63.1 µM [quencher, side channel, single point] |  |
